Experimental data taken from the supplement of paper PMC6411743.
± gives the standard deviation of the averaged measurements. The list shows a part of the results.

Key:
Test in all cases: NP40-soluble protein abundance relative to vehicle (solubility fold change) (ratio); higher = more soluble protein in presence of GTP
[1] = biological target: T1, E7EQU1 and related entries (UniProt O15347)
T1 sequence (whole entry): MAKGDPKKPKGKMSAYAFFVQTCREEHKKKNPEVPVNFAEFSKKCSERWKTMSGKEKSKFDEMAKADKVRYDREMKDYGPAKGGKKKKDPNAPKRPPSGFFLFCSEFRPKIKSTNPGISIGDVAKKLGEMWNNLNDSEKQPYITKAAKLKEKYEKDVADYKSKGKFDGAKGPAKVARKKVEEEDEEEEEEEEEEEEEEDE
Summary of the method: (§1)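 Across three independent experiments, values are fold changes against the detergent-processed vehicle for each replicate, based on vsn-normalised intensities. The samples were Jurkat crude lysate treated with eight concentrations (0.1 to 10 mM) for 10 min at room temperature and then 3 min at 37 °C. Lysate was solubilised with 0.8% NP40 and benzonase, ultracentrifuged, and the supernatant analysed by TMT-labelled LC-MS/MS.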

[2] = biological target: T2, E7ET89 and related entries (UniProt Q86UW9)
T2 sequence (whole entry): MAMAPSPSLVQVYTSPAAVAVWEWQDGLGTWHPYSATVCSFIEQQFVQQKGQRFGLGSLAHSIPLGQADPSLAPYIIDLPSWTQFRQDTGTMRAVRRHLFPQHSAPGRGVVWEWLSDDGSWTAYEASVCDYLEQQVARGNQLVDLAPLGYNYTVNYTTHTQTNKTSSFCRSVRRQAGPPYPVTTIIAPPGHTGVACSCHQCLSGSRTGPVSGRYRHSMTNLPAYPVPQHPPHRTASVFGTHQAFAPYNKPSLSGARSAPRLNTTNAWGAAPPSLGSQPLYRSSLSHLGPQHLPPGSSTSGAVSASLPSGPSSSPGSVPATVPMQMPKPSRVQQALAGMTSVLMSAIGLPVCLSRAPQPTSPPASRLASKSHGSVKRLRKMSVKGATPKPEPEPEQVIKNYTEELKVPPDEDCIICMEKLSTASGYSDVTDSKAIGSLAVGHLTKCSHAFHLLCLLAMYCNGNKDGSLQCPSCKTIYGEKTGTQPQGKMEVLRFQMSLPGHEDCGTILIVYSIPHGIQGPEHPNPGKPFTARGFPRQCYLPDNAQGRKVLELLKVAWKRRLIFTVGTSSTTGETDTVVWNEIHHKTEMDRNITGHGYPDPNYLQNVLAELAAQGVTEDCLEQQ
Summary of the method: as §1

[3] = biological target: T3, E9PF18 and related entries (UniProt Q16836)
T3 sequence (whole entry): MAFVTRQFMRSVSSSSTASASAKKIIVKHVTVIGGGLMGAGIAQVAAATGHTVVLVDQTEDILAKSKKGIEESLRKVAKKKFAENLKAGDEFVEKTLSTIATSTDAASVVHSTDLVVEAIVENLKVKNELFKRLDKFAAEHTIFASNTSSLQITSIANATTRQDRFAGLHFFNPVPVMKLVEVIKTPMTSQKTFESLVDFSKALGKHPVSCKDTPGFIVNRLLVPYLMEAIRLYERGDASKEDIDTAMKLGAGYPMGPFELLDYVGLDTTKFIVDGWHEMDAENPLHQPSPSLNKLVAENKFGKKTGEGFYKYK
Summary of the method: as §1

[4] = biological target: T4, E9PKP0 and related entries (UniProt Q8TDP1)
T4 sequence (whole entry): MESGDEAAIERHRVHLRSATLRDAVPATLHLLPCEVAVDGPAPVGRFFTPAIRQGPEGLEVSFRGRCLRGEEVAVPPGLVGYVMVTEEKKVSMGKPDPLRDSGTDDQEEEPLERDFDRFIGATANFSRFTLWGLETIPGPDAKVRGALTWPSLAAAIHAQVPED
Summary of the method: as §1

In the case of `Nc1nc2c(ncn2[C@@H]2O[C@H](COP(=O)(O)OP(=O)(O)OP(=O)(O)O)[C@@H](O)[C@H]2O)c(=O)[nH]1` [guanosine triphosphate], the NP40-soluble protein abundance ([1]; concentration: 0.1mM) is reported as 0.849 ± 0.046, the NP40-soluble protein abundance ([1]; concentration: 0.5mM) is reported as 0.867 ± 0.045 and the NP40-soluble protein abundance ([1]; concentration: 1mM) is reported as 1.06 ± 0.064. For the same compound, the NP40-soluble protein abundance ([1]; concentration: 2mM) was 1.06 ± 0.089, the NP40-soluble protein abundance ([1]; concentration: 4mM) was 1.02 ± 0.052 and the NP40-soluble protein abundance ([1]; concentration: 6mM) was 1.11 ± 0.11. For the same compound, the NP40-soluble protein abundance ([1]; concentration: 8mM) was 1.04 ± 0.12, the NP40-soluble protein abundance ([1]; concentration: 10mM) was 1.29 ± 0.16 and the NP40-soluble protein abundance ([2]; concentration: 0.1mM) was 1.07 ± 0.043. For the same compound, the NP40-soluble protein abundance ([2]; concentration: 0.5mM) was 1.02 ± 0.024, the NP40-soluble protein abundance ([2]; concentration: 1mM) was 1.06 ± 0.04 and the NP40-soluble protein abundance ([2]; concentration: 2mM) was 1.08 ± 0.0058. For the same compound, the NP40-soluble protein abundance ([2]; concentration: 4mM) was 1.1 ± 0.048, the NP40-soluble protein abundance ([2]; concentration: 6mM) was 1.04 ± 0.12 and the NP40-soluble protein abundance ([2]; concentration: 8mM) was 1.03 ± 0.078. For the same compound, the NP40-soluble protein abundance ([2]; concentration: 10mM) was 1.05 ± 0.024, the NP40-soluble protein abundance ([3]; concentration: 0.1mM) was 0.929 ± 0.034 and the NP40-soluble protein abundance ([3]; concentration: 0.5mM) was 0.966 ± 0.021. The NP40-soluble protein abundance ([3]; concentration: 1mM) was 0.905 ± 0.045, the NP40-soluble protein abundance ([3]; concentration: 2mM) was 0.882 ± 0.058 and the NP40-soluble protein abundance ([3]; concentration: 4mM) was 0.828 ± 0.067. For the same compound, the NP40-soluble protein abundance ([3]; concentration: 6mM) was 0.889 ± 0.067, the NP40-soluble protein abundance ([3]; concentration: 8mM) was 0.848 ± 0.057 and the NP40-soluble protein abundance ([3]; concentration: 10mM) was 0.835 ± 0.056. For the same compound, the NP40-soluble protein abundance ([4]; concentration: 0.1mM) was 0.969 ± 0.098, the NP40-soluble protein abundance ([4]; concentration: 0.5mM) was 0.924 ± 0.069 and the NP40-soluble protein abundance ([4]; concentration: 1mM) was 0.938 ± 0.11. It also gave an NP40-soluble protein abundance ([4]; concentration: 2mM) of 0.916 ± 0.052, an NP40-soluble protein abundance ([4]; concentration: 4mM) of 0.923 ± 0.071 and an NP40-soluble protein abundance ([4]; concentration: 6mM) of 0.894 ± 0.072.
